The results in this text go back to publication PMC4043820.

By UniProt entry, the sequences of proteins in these tests, tags left out.
UniProt A7BEY7, entry or part of it: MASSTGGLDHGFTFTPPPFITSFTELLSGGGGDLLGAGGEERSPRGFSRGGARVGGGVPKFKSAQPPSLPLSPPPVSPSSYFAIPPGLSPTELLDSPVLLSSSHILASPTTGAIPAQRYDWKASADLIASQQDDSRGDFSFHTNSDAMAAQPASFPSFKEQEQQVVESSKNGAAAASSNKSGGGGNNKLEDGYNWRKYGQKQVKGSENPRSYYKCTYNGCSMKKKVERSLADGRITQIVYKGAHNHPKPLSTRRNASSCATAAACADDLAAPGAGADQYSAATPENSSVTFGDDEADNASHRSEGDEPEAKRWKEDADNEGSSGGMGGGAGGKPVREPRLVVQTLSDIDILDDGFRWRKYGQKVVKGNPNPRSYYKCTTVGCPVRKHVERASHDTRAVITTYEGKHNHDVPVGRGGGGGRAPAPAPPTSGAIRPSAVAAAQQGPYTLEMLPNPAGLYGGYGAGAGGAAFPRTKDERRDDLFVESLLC

The exact form of at least one protein or probe is not confirmed.

The target in this data set is phospho-OsWRKY53 (Oryza sativa (rice)) (UniProt A7BEY7). Description: EMSA. To be noted: OsMPK6 + OsMKK4DD + ATP, no distinct difference from unphosphorylated; 12 mM HEPES-KOH pH 8.0, 60 mM KCl, 4 mM MgCl2, 1 mM EDTA, 12% glycerol, 1 mM DTT, 2.5 mM PMSF, 0.1 ug protein in 20 ul, 20 min on ice; recombinant protein; protein details: N-terminal Trx-His (pET-32b(+)); label: 32P 5' end label (unlabeled as competitor); probe letters rebuilt from the primers and the genome.

In the case of “TTTGGGGATGCTTCGGCGAAGGGGGTGAGGTCAAAGCTCGTGCGGTTTGACCGGTCAGACGAGGCGGCTGAGGCTCGCGC (double strand) [W-box probe (W)]”, the binding result is recorded as “binds”.
